Source: US10987357B2, “Aerosolized fluoroquinolones and uses thereof” (Horizon Orphan, LLC, priority 2005, dated 2021)

Conditions: in vivo
Procedure: In the second test, the tolerability and taste of a small aerosol sample from a 0.5 ml aliquot of the test formulation was determined in a single healthy human volunteer, following nebulization in a PARI eFlow nebulizer (Table 12).
The tolerability and taste of the drug during a very brief administration period and for a period of 10 minutes post administration were monitored. Tolerability parameters were of the following types: (i) cough, cough sensation, or sneezing (ii) irritation, burning or tightness of throat, (ii) irritation or runniness in nasal passages or eyes, (iii) irritation, burning or tightness of the lungs or shortness of breadth, and (iv) dizziness, headache, nausea or other systemic effects.

Structure (SMILES): O=C(O)c1cn(C2CC2)c2cc(N3CCNCC3)c(F)cc2c1=O [Ciprofloxacin]
- cough on aerosol exposure: associated with cough
